Where a chain is given by its changes, count along the chain named. These are yes or no findings as the source states them, for the method shown. Some binding calls cover weakened binding; strength is not graded here.
Experiments:
[1] = target: CC128 variant of CD117 (Y259C + N260D) purified protein (human) (UniProt P10721); assay: binding kinetics, FIGS. 45A-45K
[2] = target: Wild type CD117 purified protein (human) (UniProt P10721); assay: binding kinetics, FIGS. 45A-45K
[3] = target: CC200 variant of CD117 (S261G) purified protein (human) (UniProt P10721); assay: binding kinetics, FIGS. 45A-45K
[4] = target: Wild type CD117 purified protein (human) (UniProt P10721); assay: cryo-EM, ~3.0 Å
[5] = target: Wild type CD117 purified protein (human) (UniProt P10721); assay: binding kinetics (FIGS. 57A-57L)
[6] = target: CC128 variant of CD117 (Y259C + N260D) purified protein (human) (UniProt P10721); assay: binding kinetics grade, FIGS. 55A-55C
[7] = target: Wild type CD117 purified protein (human) (UniProt P10721); assay: binding kinetics grade, FIGS. 55A-55C
[8] = target: CC200 variant of CD117 (S261G) purified protein (human) (UniProt P10721); assay: binding kinetics grade, FIGS. 55A-55C
[9] = target: CC128 variant of CD117 (Y259C + N260D) purified protein (human) (UniProt P10721); assay: BLI, CC128 variant on SA biosensor, 100 nM antibody (FIG. 85)

Sequences of proteins named here, by UniProt entry; tags and fusion partners are left off. A change or cut given only in a name is not applied to a line headed by its entry.
UniProt P10721: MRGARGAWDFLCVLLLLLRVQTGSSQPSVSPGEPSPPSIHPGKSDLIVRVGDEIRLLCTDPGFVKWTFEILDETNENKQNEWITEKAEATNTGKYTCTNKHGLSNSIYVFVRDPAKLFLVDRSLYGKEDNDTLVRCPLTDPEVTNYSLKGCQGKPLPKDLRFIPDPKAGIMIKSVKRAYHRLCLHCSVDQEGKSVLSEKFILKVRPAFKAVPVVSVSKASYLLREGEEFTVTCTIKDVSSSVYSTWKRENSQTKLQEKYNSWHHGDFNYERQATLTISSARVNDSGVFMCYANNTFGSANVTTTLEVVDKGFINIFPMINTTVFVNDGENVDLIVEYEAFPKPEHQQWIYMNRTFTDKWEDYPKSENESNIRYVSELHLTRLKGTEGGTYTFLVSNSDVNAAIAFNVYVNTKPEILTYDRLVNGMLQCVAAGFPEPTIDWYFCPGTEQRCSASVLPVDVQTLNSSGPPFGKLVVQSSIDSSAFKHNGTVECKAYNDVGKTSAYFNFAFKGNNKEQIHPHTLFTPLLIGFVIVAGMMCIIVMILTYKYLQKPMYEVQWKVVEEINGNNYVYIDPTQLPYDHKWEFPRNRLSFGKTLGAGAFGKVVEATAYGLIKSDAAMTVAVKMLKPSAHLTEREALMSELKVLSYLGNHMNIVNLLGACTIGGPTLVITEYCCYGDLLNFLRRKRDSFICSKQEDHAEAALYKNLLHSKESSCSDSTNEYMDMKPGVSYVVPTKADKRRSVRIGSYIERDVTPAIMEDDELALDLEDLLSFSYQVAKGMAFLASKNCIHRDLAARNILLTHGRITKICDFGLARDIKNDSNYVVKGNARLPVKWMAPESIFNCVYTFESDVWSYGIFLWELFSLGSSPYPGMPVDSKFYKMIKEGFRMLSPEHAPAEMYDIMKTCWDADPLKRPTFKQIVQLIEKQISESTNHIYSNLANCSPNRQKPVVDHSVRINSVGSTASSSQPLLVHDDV

B1: ABTx052 variant VH_N104D (antibody, human IgG1, V domains shown)
VH: QVQLVQSGAAVKKPGESLKISCKGSGYRFTSYWIGWVRQMPGKGLEWMGIIYPGDSDTRYSPSFQGQVTISAGKSISTAYLQWSSLKASDTAMYYCARHGRGYDGYEGAFDIWGQGTMVTVSS
VL: AIQLTQSPSSLSASVGDRVTITCRASQGISSALAWYQQKPGKAPKLLIYDASSLESGVPSRFSGSGSGTDFTLTISSLQPEDFATYYCQQFNSYPLTFGGGTKVEIKR
B1 was tested, and the binding [1] was “binds”, the binding [2] was “binds” and the binding [3] was “binds”.

B2: ABTx052 variant VL_N92R (antibody, human IgG1, V domains shown)
VH: B1 VH with D104N
VL: AIQLTQSPSSLSASVGDRVTITCRASQGISSALAWYQQKPGKAPKLLIYDASSLESGVPSRFSGSGSGTDFTLTISSLQPEDFATYYCQQFRSYPLTFGGGTKVEIK
With B2 the binding [2] was “binds”.

B3: ABTx052 variant VL_N92Y (antibody, human IgG1, V domains shown)
VH: B1 VH with D104N
VL: B2 VL with R92Y
For B3, the binding [2] was “binds”.

B4: ABTx052 variant VH_R59K (antibody, human IgG1, V domains shown)
VH: B1 VH with R59K, D104N
VL: B1 VL
In the case of B4, the binding [2] is reported as “binds”.

B5: ABTx052 variant VL_Y94H (antibody, human IgG1, V domains shown)
VH: B1 VH with D104N
VL: B2 VL with R92N, Y94H
For B5, the binding [2] was “binds”.

B6: ABTx052 variant VL_Y94S (antibody, human IgG1, V domains shown)
VH: B1 VH with D104N
VL: B2 VL with R92N, Y94S
For B6, the binding [2] was “binds”.

B7: ABTx052-Fab (Fab, V domains shown)
VH: B1 VH with D104N
VL: B1 VL
B7 was tested, and the binding [4] was “binds”.

B8: ABTx052 variant VL_S93G (antibody, human IgG1, V domains shown)
VH: B1 VH with D104N
VL: B2 VL with R92N, S93G
With B8 the binding [1] was “binds”, the binding [2] was “binds” and the binding [3] was “binds”.

B9: ABTx253 (antibody, human IgG1, kappa, V domains shown)
VH: B1 VH
VL: B1 VL with N92S
For B9, the binding [5] was “binds”, the binding [6] was “binds” and the binding [7] was “binds”. The binding [8] was “binds”.

B10: ABTx273 (antibody, human IgG1, kappa, V domains shown)
VH: B1 VH
VL: B1 VL with N92R
In the case of B10, the binding [5] is reported as “binds” and the binding [7] is reported as “binds”.

B11: ABTx250 (antibody, human IgG1, kappa, V domains shown)
VH: B1 VH with R59K
VL: B1 VL
For B11, the binding [5] was “binds”, the binding [6] was “binds” and the binding [7] was “binds”. The binding [8] was “binds”.

B12: ABTx251 (antibody, human IgG1, kappa, V domains shown)
VH: B1 VH
VL: B1 VL with N92Y
B12 was tested, and the binding [5] was “binds” and the binding [7] was “binds”.

B13: ABTx274 (antibody, human IgG1, kappa, V domains shown)
VH: B1 VH with R59K
VL: B1 VL with F91T
For B13, the binding [5] was “binds”, the binding [6] was “binds” and the binding [7] was “binds”. The binding [8] was “binds”.

B14: ABTx265 (antibody, human IgG1, kappa, V domains shown)
VH: B1 VH with R59K, E107D
VL: B1 VL with F91T, N92R
With B14 the binding [5] was “binds” and the binding [7] was “binds”.

B15: ABTx268 (antibody, human IgG1, kappa, V domains shown)
VH: B1 VH with R59K
VL: B1 VL with F91V
In the case of B15, the binding [5] is reported as “binds” and the binding [7] is reported as “binds”.

B16: ABTx270 (antibody, human IgG1, kappa, V domains shown)
VH: B1 VH with G105A
VL: B1 VL with F91V, N92R
For B16, the binding [5] was “binds” and the binding [7] was “binds”.

B17: ABTx256 (antibody, human IgG1, kappa, V domains shown)
VH: B1 VH with G105A
VL: B1 VL with F91T, N92Y
For B17, the binding [5] was “binds” and the binding [7] was “binds”.

B18: ABTx272 (antibody, human IgG1, kappa, V domains shown)
VH: B1 VH with R59K, E107D
VL: B1 VL with F91V, N92R
B18 was tested, and the binding [5] was “binds” and the binding [7] was “binds”.

B19: ABTx249 (antibody, human IgG1, kappa, V domains shown)
VH: B1 VH
VL: B1 VL with F91L, S93G
B19 was tested, and the binding [6] was “binds”, the binding [7] was “binds” and the binding [8] was “binds”.

B20: ABTx252 (antibody, human IgG1, kappa, V domains shown)
VH: B1 VH
VL: B1 VL with Y94H
With B20 the binding [6] was “binds” and the binding [8] was “binds”.

B21: ABTx255 (antibody, human IgG1, kappa, V domains shown)
VH: B1 VH with R59K
VL: B1 VL with F91V, N92R
With B21 the binding [6] was “binds”, the binding [7] was “binds” and the binding [8] was “binds”.

B22: ABTx257 (antibody, human IgG1, kappa, V domains shown)
VH: B1 VH with R59K, G105A, E107D
VL: B1 VL with F91T
With B22 the binding [6] was “binds”, the binding [7] was “binds” and the binding [8] was “binds”.

B23: ABTx258 (antibody, human IgG1, kappa, V domains shown)
VH: B1 VH with R59K, G105A
VL: B1 VL with F91V, N92R
B23 was tested, and the binding [7] was “binds”.

B24: ABTx261 (antibody, human IgG1, kappa, V domains shown)
VH: B1 VH with R59K, G105A
VL: B1 VL with F91T, N92R
In the case of B24, the binding [7] is reported as “binds”.

B25: ABTx262 (antibody, human IgG1, kappa, V domains shown)
VH: B1 VH with G105A
VL: B1 VL with N92R, Y94S
For B25, the binding [7] was “binds”.

B26: ABTx263 (antibody, human IgG1, kappa, V domains shown)
VH: B1 VH with R59K, E107D
VL: B1 VL with F91V, N92Y
In the case of B26, the binding [7] is reported as “binds”.

B27: ABTx267 (antibody, human IgG1, kappa, V domains shown)
VH: B1 VH with R59K, G105A, E107D
VL: B1 VL with F91T, Y94S
With B27 the binding [7] was “binds”.

B28: ABTx269 (antibody, human IgG1, kappa, V domains shown)
VH: B1 VH with R59K
VL: B1 VL with F91V, N92Y
B28 was tested, and the binding [7] was “binds”.

B29: ABTx308 (antibody, human IgG1, kappa, L234A L235A, V domains shown)
VH: B1 VH with R59K, G105A, E107D
VL: B1 VL with N92S
In the case of B29, the binding [9] is reported as “binds”.

B30: ABTx052 variant VL_F91T (antibody, human IgG1, V domains shown)
VH: B1 VH with D104N
VL: B2 VL with F91T, R92N
B30 was tested, and the binding [1] was “binds”, the binding [2] was “binds” and the binding [3] was “binds”.

B31: ABTx052 variant VH_G105A (antibody, human IgG1, V domains shown)
VH: B1 VH with D104N, G105A
VL: B1 VL
For B31, the binding [1] was “binds”, the binding [2] was “binds” and the binding [3] was “binds”.
